# In PubChem BioAssay (Tox21):
# Chains of the proteins cited; added tags and fusions are not shown. Lines headed by an entry give the natural chain unless they say otherwise; changes in a name come on top.
# UniProt Q9R1A7: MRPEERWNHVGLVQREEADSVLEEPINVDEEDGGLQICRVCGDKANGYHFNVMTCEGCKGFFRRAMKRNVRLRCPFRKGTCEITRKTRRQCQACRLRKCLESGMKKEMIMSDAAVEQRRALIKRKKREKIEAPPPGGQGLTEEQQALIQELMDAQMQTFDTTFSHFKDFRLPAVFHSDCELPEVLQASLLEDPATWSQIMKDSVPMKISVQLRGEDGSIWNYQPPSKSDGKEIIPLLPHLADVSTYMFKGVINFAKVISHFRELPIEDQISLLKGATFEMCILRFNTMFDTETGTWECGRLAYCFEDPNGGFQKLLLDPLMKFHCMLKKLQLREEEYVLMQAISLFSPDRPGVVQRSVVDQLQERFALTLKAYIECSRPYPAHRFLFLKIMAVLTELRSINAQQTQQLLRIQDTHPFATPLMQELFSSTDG
# UniProt P10635, whole entry, looked up: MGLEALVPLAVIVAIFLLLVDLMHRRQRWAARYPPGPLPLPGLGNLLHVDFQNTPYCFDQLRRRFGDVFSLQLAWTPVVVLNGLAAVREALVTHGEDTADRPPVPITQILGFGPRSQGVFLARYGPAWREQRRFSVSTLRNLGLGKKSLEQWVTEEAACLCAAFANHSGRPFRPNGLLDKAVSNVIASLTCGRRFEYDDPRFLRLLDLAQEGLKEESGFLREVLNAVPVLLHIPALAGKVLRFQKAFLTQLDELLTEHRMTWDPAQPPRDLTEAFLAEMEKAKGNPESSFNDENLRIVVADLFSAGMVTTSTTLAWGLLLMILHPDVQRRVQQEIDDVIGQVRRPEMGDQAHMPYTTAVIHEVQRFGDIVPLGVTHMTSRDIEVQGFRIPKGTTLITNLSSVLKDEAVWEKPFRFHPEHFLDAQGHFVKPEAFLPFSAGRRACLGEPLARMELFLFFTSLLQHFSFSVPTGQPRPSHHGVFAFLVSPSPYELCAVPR
# UniProt P33261, whole entry, looked up: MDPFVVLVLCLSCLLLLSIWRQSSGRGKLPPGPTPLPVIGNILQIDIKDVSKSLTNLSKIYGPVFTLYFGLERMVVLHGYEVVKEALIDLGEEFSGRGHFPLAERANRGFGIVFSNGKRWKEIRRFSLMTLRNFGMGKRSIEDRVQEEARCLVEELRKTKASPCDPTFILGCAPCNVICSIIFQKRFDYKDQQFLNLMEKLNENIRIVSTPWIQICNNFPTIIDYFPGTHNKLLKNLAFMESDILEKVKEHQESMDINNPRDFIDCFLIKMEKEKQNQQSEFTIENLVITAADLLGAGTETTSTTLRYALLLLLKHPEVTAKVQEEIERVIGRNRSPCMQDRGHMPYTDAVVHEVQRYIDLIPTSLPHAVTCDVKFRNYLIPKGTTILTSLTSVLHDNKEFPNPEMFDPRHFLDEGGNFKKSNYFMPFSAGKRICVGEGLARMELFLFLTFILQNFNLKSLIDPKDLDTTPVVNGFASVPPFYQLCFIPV
# UniProt P11712, whole entry, looked up: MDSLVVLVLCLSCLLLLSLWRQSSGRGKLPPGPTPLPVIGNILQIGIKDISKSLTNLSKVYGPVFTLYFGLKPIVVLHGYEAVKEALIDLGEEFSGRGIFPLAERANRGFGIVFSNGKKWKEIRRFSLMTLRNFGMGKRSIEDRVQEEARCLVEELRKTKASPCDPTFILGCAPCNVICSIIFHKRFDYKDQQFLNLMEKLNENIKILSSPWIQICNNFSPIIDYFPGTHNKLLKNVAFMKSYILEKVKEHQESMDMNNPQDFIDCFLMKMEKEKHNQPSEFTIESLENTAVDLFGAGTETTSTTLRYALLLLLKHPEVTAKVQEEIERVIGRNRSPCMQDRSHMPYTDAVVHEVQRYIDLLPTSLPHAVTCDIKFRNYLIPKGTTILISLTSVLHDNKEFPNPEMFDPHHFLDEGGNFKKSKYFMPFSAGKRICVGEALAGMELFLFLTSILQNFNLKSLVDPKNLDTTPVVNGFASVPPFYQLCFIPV
# UniProt P05177, whole entry, looked up: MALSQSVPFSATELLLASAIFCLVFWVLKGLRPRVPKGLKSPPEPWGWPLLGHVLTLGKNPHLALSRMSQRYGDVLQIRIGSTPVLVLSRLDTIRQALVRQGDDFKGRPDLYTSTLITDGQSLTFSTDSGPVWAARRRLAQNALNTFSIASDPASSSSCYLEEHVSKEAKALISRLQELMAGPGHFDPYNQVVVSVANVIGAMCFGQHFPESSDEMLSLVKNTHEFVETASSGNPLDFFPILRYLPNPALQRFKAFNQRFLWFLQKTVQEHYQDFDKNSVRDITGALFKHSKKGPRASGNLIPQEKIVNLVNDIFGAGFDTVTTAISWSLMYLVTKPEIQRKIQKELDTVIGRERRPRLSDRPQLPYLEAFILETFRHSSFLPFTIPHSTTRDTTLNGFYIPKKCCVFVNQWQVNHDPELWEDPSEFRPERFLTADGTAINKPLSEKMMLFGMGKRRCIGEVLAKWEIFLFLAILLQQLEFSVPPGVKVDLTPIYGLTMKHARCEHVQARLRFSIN
# UniProt Q12809: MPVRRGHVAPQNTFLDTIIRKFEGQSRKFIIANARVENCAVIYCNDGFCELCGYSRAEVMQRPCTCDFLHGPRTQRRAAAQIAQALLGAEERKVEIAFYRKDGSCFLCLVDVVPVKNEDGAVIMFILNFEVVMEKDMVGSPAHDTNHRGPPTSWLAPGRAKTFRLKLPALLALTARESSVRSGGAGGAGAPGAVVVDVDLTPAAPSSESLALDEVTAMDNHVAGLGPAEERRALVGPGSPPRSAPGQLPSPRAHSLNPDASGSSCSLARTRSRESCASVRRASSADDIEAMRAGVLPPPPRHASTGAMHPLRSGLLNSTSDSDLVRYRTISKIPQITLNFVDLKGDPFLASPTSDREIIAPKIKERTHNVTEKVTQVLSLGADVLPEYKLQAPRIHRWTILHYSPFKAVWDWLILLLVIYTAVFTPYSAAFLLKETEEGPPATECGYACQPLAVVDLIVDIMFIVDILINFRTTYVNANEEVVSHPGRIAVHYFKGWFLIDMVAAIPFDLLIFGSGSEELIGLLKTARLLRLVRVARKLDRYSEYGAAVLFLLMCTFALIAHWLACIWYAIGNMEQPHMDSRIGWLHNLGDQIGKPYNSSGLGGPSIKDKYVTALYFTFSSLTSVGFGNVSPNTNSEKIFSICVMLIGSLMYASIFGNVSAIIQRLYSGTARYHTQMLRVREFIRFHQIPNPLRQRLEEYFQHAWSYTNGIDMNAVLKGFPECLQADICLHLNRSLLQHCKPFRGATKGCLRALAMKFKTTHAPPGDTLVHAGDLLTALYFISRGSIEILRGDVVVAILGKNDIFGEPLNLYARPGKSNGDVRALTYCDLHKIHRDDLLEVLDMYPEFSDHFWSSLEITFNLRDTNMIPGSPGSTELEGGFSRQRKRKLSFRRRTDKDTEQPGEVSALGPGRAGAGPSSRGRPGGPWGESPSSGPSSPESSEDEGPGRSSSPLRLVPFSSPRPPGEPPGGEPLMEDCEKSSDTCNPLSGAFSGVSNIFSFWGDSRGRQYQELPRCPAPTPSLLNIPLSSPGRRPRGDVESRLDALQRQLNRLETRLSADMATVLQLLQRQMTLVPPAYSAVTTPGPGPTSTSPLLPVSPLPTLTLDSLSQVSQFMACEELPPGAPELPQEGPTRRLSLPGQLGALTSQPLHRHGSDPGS
# UniProt P08684, whole entry, looked up: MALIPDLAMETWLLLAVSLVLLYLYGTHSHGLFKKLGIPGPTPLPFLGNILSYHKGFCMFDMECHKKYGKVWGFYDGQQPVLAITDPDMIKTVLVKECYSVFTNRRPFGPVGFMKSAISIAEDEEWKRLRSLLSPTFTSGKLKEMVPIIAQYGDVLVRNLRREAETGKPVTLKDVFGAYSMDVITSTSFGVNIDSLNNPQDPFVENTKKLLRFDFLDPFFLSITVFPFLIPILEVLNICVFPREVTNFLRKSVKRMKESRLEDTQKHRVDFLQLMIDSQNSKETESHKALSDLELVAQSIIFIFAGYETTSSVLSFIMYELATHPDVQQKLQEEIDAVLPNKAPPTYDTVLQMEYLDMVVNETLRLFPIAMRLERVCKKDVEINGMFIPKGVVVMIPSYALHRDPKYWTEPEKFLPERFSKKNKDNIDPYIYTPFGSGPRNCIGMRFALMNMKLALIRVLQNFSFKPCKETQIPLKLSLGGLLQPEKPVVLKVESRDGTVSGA
# Several values for one entry are separate records, joined by “and”; a condition that tells them apart may be missing. Identical values can stand only once. Inconclusive results, whose numbers are uncertain, are shown with a selection of clear calls. For part of these data: Potencies beside an inconclusive call are fits to weak or partial responses and may not hold up. Activity calls are given as the source filed them. Calls follow the shape of the dose curve; as a rule, active = well fitted curve in the direction sought with a large enough effect in the repeat runs; inconclusive = weak or mixed curves; inactive = no such curve, though single readings can be large; an effect the other way counts as inactive or inconclusive.
# Key:
# [1] = target: Nuclear receptor subfamily 1 group I member 2 (Homo sapiens) (UniProt O75469); assay: Human pregnane X receptor (PXR) small molecule agonists, qHTS assay (AID 1346982); also: nearly all actives have a fitted effect of over 35% in size; also: potency is read from the fitted curve at half-maximal effect
# Outline: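 Luciferase signal from ONE-Glo (30 min, room temperature) measured activation of hPXR-driven CYP3A4 reporter expression in PXR-Luc HepG2 cells treated with compounds for 24 hr at 37 C.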
# [2] = target: Nuclear receptor subfamily 1 group I member 2 (Rattus norvegicus) (UniProt Q9R1A7); assay: Rat pregnane X receptor (rPXR) activation by small molecules, qHTS assay (AID 1346983); conditions: rPXR luciferase reporter cells, One-Glo luminescence, 24 h; max activation: stronger effect = higher value; also: potency is read from the fitted curve at half-maximal effect; nearly all actives have a fitted effect of over 20% in size
# Outline: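 Cell-based rPXR luciferase reporter assay, 2,000 cells per well, rested 5hr at 37 C before compound addition in DMSO, then 24 hr at 37 C. One-Glo reagent was added and luminescence read after 30 min at room temperature.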
# [3] = target: Nuclear receptor subfamily 1 group I member 2 (Homo sapiens) (UniProt O75469); assay: Human pregnane X receptor (PXR) activation by small molecules, qHTS assay (AID 1346985); also: potency is read from the fitted curve at half-maximal effect; nearly all actives have a fitted effect of over 40% in size
# Outline: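 DPX-2 cells (HepG2 co-transfected with a PXR response element and a CYP3A4-promoter luciferase construct) were seeded at 2,000 per well, rested 5 hr at 37C, then exposed to DMSO-dissolved compounds for 24 hr. Activation was read as luciferase luminescence.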
# [4] = target: Cytochrome P450 2D6 (Homo sapiens) (UniProt P10635); assay: Cytochrome P450 Family 2 Subfamily D Member 6 (CYP2D6) small molecule antagonists: luciferase reporter qHTS assay (AID 1671196); also: potency is read from the fitted curve at half-maximal effect; nearly all actives have a fitted effect of over 50% in size
# Outline: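 Read-out is luminescence from luciferin formed by CYP2D6 turnover of a proluciferin substrate, recorded as relative luminescence units. Reactions ran 1 h at room temperature after NADPH regeneration solution was added.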
# [5] = target: Cytochrome P450 2C19 (Homo sapiens) (UniProt P33261); assay: Cytochrome P450 Family 2 Subfamily C Member 19 (CYP2C19) small molecule antagonists: luciferase reporter qHTS assay (AID 1671197); also: potency is read from the fitted curve at half-maximal effect; nearly all actives have a fitted effect of over 65% in size
# Outline: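 Relative luminescence units recorded 20 min after the detection reagent stopped a 1 h, 37C CYP2C19 reaction on proluciferin substrate, which was started by NADPH regeneration following 10 min room-temperature compound preincubation; ketoconazole positive control.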
# [6] = target: Cytochrome P450 2C9 (Homo sapiens) (UniProt P11712); assay: Cytochrome P450 Family 2 Subfamily C Member 9 (CYP2C9) small molecule antagonists: luciferase reporter qHTS assay (AID 1671198); also: potency is read from the fitted curve at half-maximal effect; nearly all actives have a fitted effect of over 50% in size
# Outline: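 CYP2C9 activity was measured with a P450-Glo proluciferin substrate. Enzyme–substrate mix was held with compound for 10 min at room temperature, then NADPH regeneration solution was added for 1 h at 37C. Luciferin product was read as luminescence.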
# [7] = target: Cytochrome P450 1A2 (Homo sapiens) (UniProt P05177); assay: Cytochrome P450 Family 1 Subfamily A Member 2 (CYP1A2) small molecule antagonists: luciferase reporter qHTS assay (AID 1671199); also: nearly all actives have a fitted effect of over 50% in size; also: potency is read from the fitted curve at half-maximal effect
# Outline: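 P450-Glo CYP1A2, 1536-well qHTS: enzyme/proluciferin substrate + cpd (DMSO), 10 min RT; NADPH regen, 1 h RT; detection reagent, 20 min; luminescence, RLU.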
# [8] = target: Voltage-gated inwardly rectifying potassium channel KCNH2 (Homo sapiens) (UniProt Q12809); assay: Human Ether-a-go-go-Related Gene (hERG) channel small molecule antagonists: fluorescence cell-based qHTS assay (AID 1671200); also: nearly all actives have a fitted effect of over 50% in size; also: potency is read from the fitted curve at half-maximal effect
# Outline: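 Cell line hERG-U2OS; dye FluxOR II, 1 h RT dark; Tl+ stimulus; ex 480/em 540 nm, read each second for 2 min.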
# [9] = target: Cytochrome P450 3A4 (Homo sapiens) (UniProt P08684); assay: Cytochrome P450 Family 3 Subfamily A Member 4 (CYP3A4) small molecule antagonists: luciferase reporter qHTS assay (AID 1671201); also: nearly all actives have a fitted effect of over 50% in size; also: potency is read from the fitted curve at half-maximal effect
# Outline: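 Room-temperature assay throughout: 10 min compound–enzyme/substrate preincubation, 1 h reaction after NADPH regeneration solution, 20 min detection. Luciferin formed from proluciferin substrate is quantified by luminescence.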
# [10] = target: Nuclear receptor subfamily 1 group I member 2 (Homo sapiens) (UniProt O75469); assay: CYP3A4 induction through human pregnane X receptor (PXR) by small molecules, qHTS assay (AID 1346984); also: nearly all actives have a fitted effect of over 40% in size
# Outline: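 Luminescence readout: luciferase signal after One-Glo (30 min, room temperature), following 3 h at 37C with 3uM final Luciferin-IPA P450 substrate. Cells were DPX-2 (HepG2, PXR/CYP3A4-luc co-transfected) dosed for 24 h.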
# [11] = Caspase-3/7 induction in HepG2 cells by small molecules, qHTS cell viability counter screen (AID 1346981); also: potency is read from the fitted curve at half-maximal effect; nearly all actives have a fitted effect of over 30% in size
# Outline: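 HepG2, WT, 2,000 cells/well; 5 hr pre-incubation 37 C/5% CO2; compound pin-transferred from DMSO; 16 hr exposure; CellTiter-Fluor, 1 hr; fluorescence read.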
structure (smiles),measurement,setting,value
CCCCC(=O)O[C@]1(C(=O)CO)[C@H](C)C[C@H]2[C@@H]3CCC4=CC(=O)C=C[C@]4(C)[C@@]3(F)[C@@H](O)C[C@@]21C,Potency,[1],inactive
same,Potency,[2],"inconclusive: 6.31 µM [activator, partial curve]"
same,Potency,[3],"inconclusive: 25.1 µM [activator, partial curve, poor fit]"
same,Potency,[4],"inconclusive: 34.7 µM [inhibitor, partial curve]"
same,Potency,[5],"inconclusive: 34.7 µM [inhibitor, single point]"
same,Potency,[6],active: 17.4 µM
CCCC(CC)c1ccccc1 (configuration not stated),Potency,[1],"inconclusive: 24.3 µM [activator, single point]"
c1cc2c3c(c1)ccc1cccc(c13)C2,Potency,[1],"inconclusive: 35.1 µM [activator, single point]"
same,Potency,[4],"inconclusive: 81.3 µM [inhibitor, single point]"
same,Potency,[6],"inconclusive: 91.3 µM [inhibitor, partial curve, poor fit]"
same,Potency,[7],active: 3.63 µM
C[Si](Cl)(c1ccccc1)c1ccccc1,Potency,[1],active: 59.6 µM
same,Potency,[4],"inconclusive: 61.7 µM [inhibitor, partial curve]"
same,Potency,[7],"inconclusive: 30.9 µM [inhibitor, partial curve]"
NC(CO)(CO)CO,Potency,[1],"inconclusive: 34.7 µM [activator, partial curve]"
same,Potency,[6],"inconclusive: 80.3 µM [inhibitor, partial curve, poor fit]"
same,Potency,[7],"inconclusive: 28.3 µM [inhibitor, full curve] and inconclusive: 44.7 µM [inhibitor, partial curve]"
c1ccc(-c2nn[nH]n2)cc1,Potency,[1],inactive
same,Potency,[6],"inconclusive: 25.2 µM [inhibitor, full curve, poor fit]"
same,Potency,[7],"inconclusive: 39.9 µM [inhibitor, partial curve]"
CCOC(=O)CC1(C)OCC(C)O1 (configuration not stated),Potency,[1],inactive
CC(C)(C)NSc1nc2ccccc2s1,Potency,[1],active: 49.4 µM
same,Potency,[4],"inconclusive: 64.3 µM [inhibitor, partial curve]"
same,Potency,[6],active: 16.2 µM
same,Potency,[7],active: 32.2 µM
same,Potency,[8],inactive
same,Potency,[9],"inconclusive: 12.8 µM [inhibitor, full curve, poor fit]"
O=[N+]([O-])c1cccc(S(=O)(=O)NCCNS(=O)(=O)c2cccc([N+](=O)[O-])c2)c1,Potency,[1],active: 13.3 µM
same,Potency,[2],"inconclusive: 14.1 µM [activator, partial curve]"
same,Potency,[3],active: 14.1 µM
same,Potency,[4],"inconclusive: 11 µM [inhibitor, full curve]"
same,Potency,[8],"inconclusive: 12 µM [inhibitor, partial curve]"
CNC(=O)c1ccccc1,Potency,[1],inactive
same,Potency,[4],"inconclusive: 71 µM [inhibitor, partial curve]"
same,Potency,[7],"inconclusive: 63.3 µM [inhibitor, partial curve, poor fit]"
O=C(O)c1cc2ccccc2cc1O,Potency,[1],"inconclusive: 27.3 µM [activator, partial curve]"
same,Potency,[4],"inconclusive: 39.9 µM [inhibitor, partial curve]"
same,Potency,[7],"inconclusive: 79.1 µM [inhibitor, single point]"
COc1ccc2c(c1)c(CC(=O)OC/C=C(\C)CC/C=C(\C)CCC=C(C)C)c(C)n2C(=O)c1ccc(Cl)cc1,Potency,[1],"inconclusive: 10.6 µM [activator, single point]"
same,Potency,[4],"inconclusive: 30.9 µM [inhibitor, partial curve]"
same,Potency,[6],active: 17.4 µM
Cc1cc(C(C)(C)C)c(O)c(C)c1Cn1c(=O)n(Cc2c(C)cc(C(C)(C)C)c(O)c2C)c(=O)n(Cc2c(C)cc(C(C)(C)C)c(O)c2C)c1=O,Potency,[1],"inconclusive: 1.22 µM [activator, single point]"
same,Potency,[4],"inconclusive: 63.3 µM [inhibitor, partial curve, poor fit]"
same,Potency,[6],"inconclusive: 35.6 µM [inhibitor, partial curve]"
COc1ccc(Nc2ccc(OC)cc2)cc1,Potency,[1],active: 24.8 µM
same,Potency,[5],active: 2.29 µM
same,Potency,[8],inactive
CC(=O)O[C@@H]1CC2CCC1(C)C2(C)C (some centres not stated),Potency,[1],"inconclusive: 30.6 µM [activator, single point]"
CC1=NN(c2ccc(C(=O)O)cc2)C(=O)C1,Potency,[1],inactive
same,Potency,[4],"inconclusive: 71 µM [inhibitor, partial curve, poor fit]"
Cc1cc(S(=O)(=O)O)c(N)cc1Cl,Potency,[1],inactive
same,Potency,[4],"inconclusive: 71.7 µM [inhibitor, partial curve, poor fit]"
same,Potency,[5],active: 80.5 µM
CC(C(=O)O)c1ccc(/C=C2\CCCCC2=O)cc1 (configuration not stated),Potency,[1],"inconclusive: 11.9 µM [activator, partial curve]"
same,Potency,[4],"inconclusive: 24.5 µM [inhibitor, partial curve]"
same,Potency,[5],"inconclusive: 3.89 µM [inhibitor, full curve, poor fit]"
same,Potency,[9],inactive
C[C@@H]1C[C@H]2[C@@H]3CCC4=CC(=O)C=C[C@]4(C)[C@@]3(F)[C@@H](O)C[C@]2(C)[C@@]1(O)C(=O)COP(=O)(O)O,Potency,[1],inactive
C[C@]12C=CC(=O)C=C1CC[C@H]1[C@@H]3C[C@@H](O)[C@](O)(C(=O)CO)[C@@]3(C)C[C@H](O)[C@@]12F,Potency,[1],"inconclusive: 6.68 µM [activator, partial curve, poor fit]"
same,Potency,[10],inactive
same,Potency,[6],"active: 20 µM and inconclusive: 43.6 µM [inhibitor, single point]"
same,Potency,[7],inactive
CCc1cccc2c(CCO)c[nH]c12,Potency,[1],inactive
same,Potency,[4],"inconclusive: 17.4 µM [inhibitor, partial curve]"
same,Potency,[6],"inconclusive: 13.8 µM [inhibitor, partial curve]"
CC(Oc1cc(Cl)ccc1Cl)C(=O)O (configuration not stated),Potency,[11],"inconclusive: 61.1 µM [rising, partial curve, poor fit]"
same,Potency,[9],"inconclusive: 39.9 µM [inhibitor, partial curve]"
